Data as given in the supplement of paper PMC8728848.
The other results are listed elsewhere or left out.

Legend:
Experiment in all cases: glycan array binding signal (z-score within array); higher = stronger binding
Conditions in all cases: glycan notation: IUPAC condensed, linker removed
[1] = target: Neu5Ac(a2-6)Gal(b1-4)GlcNAc(b1-2)Man(a1-3)[GlcNAc(b1-4)][Neu5Ac(a2-6)Gal(b1-4)GlcNAc(b1-2)Man(a1-6)]Man(b1-4)GlcNAc(b1-4)GlcNAc
Method in brief: (§1)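 Glycan array binding is given as a within-array Z-score, which can be read as non-binding when negative. The arrays, 3228 of them, came from the Consortium for Functional Glycomics database and were retained only where the protein sequence was available. Z-scores were averaged across arrays of the same protein sequence at different concentrations or buffers and across linkers.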

[2] = target: Neu5Ac(a2-6)Gal(b1-4)GlcNAc(b1-2)Man(a1-3)[Man(a1-6)]Man(b1-4)GlcNAc(b1-4)GlcNAc
Method in brief: as §1

[3] = target: Neu5Ac(a2-6)Gal(b1-4)GlcNAc(b1-2)Man(a1-3)[Neu5Ac(a2-3)Gal(b1-4)GlcNAc(b1-2)Man(a1-6)]Man(b1-4)GlcNAc(b1-4)GlcNAc
Method in brief: as §1

[4] = target: Neu5Ac(a2-6)Gal(b1-4)GlcNAc(b1-2)Man(a1-3)[Neu5Ac(a2-6)Gal(b1-4)GlcNAc(b1-2)Man(a1-6)]Man(b1-4)GlcNAc(b1-4)GlcNAc
Method in brief: as §1

[5] = target: Neu5Ac(a2-6)Gal(b1-4)GlcNAc(b1-2)Man(a1-3)[Neu5Ac(a2-6)Gal(b1-4)GlcNAc(b1-2)Man(a1-6)]Man(b1-4)GlcNAc(b1-4)[Fuc(a1-6)]GlcNAc
Method in brief: as §1

[6] = target: Neu5Ac(a2-6)Gal(b1-4)GlcNAc(b1-2)Man(a1-6)Man(b1-4)GlcNAc(b1-4)GlcNAc
Method in brief: as §1

[7] = target: Neu5Ac(a2-6)Gal(b1-4)GlcNAc(b1-2)Man(a1-6)[Gal(b1-4)GlcNAc(b1-2)Man(a1-3)]Man(b1-4)GlcNAc(b1-4)GlcNAc
Method in brief: as §1

[8] = target: Neu5Ac(a2-6)Gal(b1-4)GlcNAc(b1-2)Man(a1-6)[GlcNAc(b1-2)Man(a1-3)]Man(b1-4)GlcNAc(b1-4)GlcNAc
Method in brief: as §1

[9] = target: Neu5Ac(a2-6)Gal(b1-4)GlcNAc(b1-2)Man(a1-6)[Man(a1-3)]Man(b1-4)GlcNAc(b1-4)GlcNAc
Method in brief: as §1

[10] = target: Neu5Ac(a2-6)Gal(b1-4)GlcNAc(b1-2)[Neu5Ac(a2-6)Gal(b1-4)GlcNAc(b1-4)]Man(a1-3)[GlcNAc(b1-4)][Neu5Ac(a2-6)Gal(b1-4)GlcNAc(b1-2)[Neu5Ac(a2-6)Gal(b1-4)GlcNAc(b1-6)]Man(a1-6)]Man(b1-4)GlcNAc(b1-4)GlcNAc
Method in brief: as §1

[11] = target: Neu5Ac(a2-6)Gal(b1-4)GlcNAc(b1-2)[Neu5Ac(a2-6)Gal(b1-4)GlcNAc(b1-4)]Man(a1-3)[GlcNAc(b1-4)][Neu5Ac(a2-6)Gal(b1-4)GlcNAc(b1-4)Man(a1-6)]Man(b1-4)GlcNAc(b1-4)GlcNAc
Method in brief: as §1

[12] = target: Neu5Ac(a2-6)Gal(b1-4)GlcNAc(b1-2)[Neu5Ac(a2-6)Gal(b1-4)GlcNAc(b1-6)]Man(a1-6)[Neu5Ac(a2-6)Gal(b1-4)GlcNAc(b1-2)Man(a1-3)][GlcNAc(b1-4)]Man(b1-4)GlcNAc(b1-4)GlcNAc
Method in brief: as §1

[13] = target: Neu5Ac(a2-6)Gal(b1-4)GlcNAc(b1-3)Gal(b1-3)GlcNAc
Method in brief: as §1

[14] = target: Neu5Ac(a2-6)Gal(b1-4)GlcNAc(b1-3)Gal(b1-4)GlcNAc
Method in brief: as §1

[15] = target: Neu5Ac(a2-6)Gal(b1-4)GlcNAc(b1-3)Gal(b1-4)GlcNAc(b1-2)Man(a1-3)[Neu5Ac(a2-6)Gal(b1-4)GlcNAc(b1-3)Gal(b1-4)GlcNAc(b1-2)Man(a1-6)]GalNAc
Method in brief: as §1

[16] = target: Neu5Ac(a2-6)Gal(b1-4)GlcNAc(b1-3)Gal(b1-4)GlcNAc(b1-3)Gal(b1-4)GlcNAc
Method in brief: as §1

[17] = target: Neu5Ac(a2-6)Gal(b1-4)GlcNAc(b1-3)Gal(b1-4)GlcNAc(b1-3)Gal(b1-4)GlcNAc(b1-2)Man(a1-3)[Neu5Ac(a2-6)Gal(b1-4)GlcNAc(b1-3)Gal(b1-4)GlcNAc(b1-3)Gal(b1-4)GlcNAc(b1-2)Man(a1-6)]GalNAc
Method in brief: as §1

[18] = target: Neu5Ac(a2-6)Gal(b1-4)GlcNAc(b1-3)Gal(b1-4)GlcNAc(b1-3)GalNAc
Method in brief: as §1

[19] = target: Neu5Ac(a2-6)Gal(b1-4)GlcNAc(b1-3)Gal(b1-4)GlcNAc(b1-3)[Neu5Ac(a2-6)Gal(b1-4)GlcNAc(b1-3)Gal(b1-4)GlcNAc(b1-6)]GalNAc
Method in brief: as §1

[20] = target: Neu5Ac(a2-6)Gal(b1-4)GlcNAc(b1-3)Gal(b1-4)GlcNAc(b1-6)[Gal(b1-3)]GalNAc
Method in brief: as §1

[21] = target: Neu5Ac(a2-6)Gal(b1-4)GlcNAc(b1-3)Gal(b1-4)[Fuc(a1-3)]GlcNAc(b1-3)Gal(b1-4)[Fuc(a1-3)]GlcNAc
Method in brief: as §1

## KILRGVCKKIMRTFLRRISKDILTGKK [NK2 (Sus scrofa)]
[1]
  glycan array binding signal (z-score): -0.061
[2]
  glycan array binding signal (z-score): 1.38
[3]
  glycan array binding signal (z-score): 1.4
[4]
  glycan array binding signal (z-score): -0.014
[5]
  glycan array binding signal (z-score): -0.062
[6]
  glycan array binding signal (z-score): 0.51
[7]
  glycan array binding signal (z-score): -0.062
[8]
  glycan array binding signal (z-score): 0.794
[9]
  glycan array binding signal (z-score): -0.656
[10]
  glycan array binding signal (z-score): 1.34
[11]
  glycan array binding signal (z-score): 1.24
[12]
  glycan array binding signal (z-score): 0.345
[13]
  glycan array binding signal (z-score): -0.155
[14]
  glycan array binding signal (z-score): -0.01
[15]
  glycan array binding signal (z-score): 0.632
[16]
  glycan array binding signal (z-score): 0.297
[17]
  glycan array binding signal (z-score): 1.64
[18]
  glycan array binding signal (z-score): 0.458
[19]
  glycan array binding signal (z-score): 0.794
[20]
  glycan array binding signal (z-score): 0.793
[21]
  glycan array binding signal (z-score): -0.083
